PubChem BioAssay AID504808 – Drosophila RNAi Screening Center, 2011
Test: 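Chromatin factors that keep E2F targets switched off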 (primary screen). Cell system: Drosophila S2 cells. Reagents: long dsRNA against Drosophila genes. Detection: 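Firefly luciferase driven by E2F sites, normalised to Renilla luciferase on the same minimal promoter, measured by plate reader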. Scale: E2F firefly: higher = more E2F reporter activity; Renilla normaliser: higher = more normaliser reporter signal. Call rule: 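Called active if the normalised E2F reporter went up by over 50%; the cutoff is arbitrary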.
The deposit covers about 21,000 reagents; this is a random part of those that have a named target and a result. In the full data, 18 (0.084%) are marked active. 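Raw counts without plate normalisation, one of two replicates; the ratio scores behind the calls were not deposited.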 Entries without a mark were called inactive. A plus sign joins genes that one reagent is predicted to hit. Not stated in the record: the amount of reagent, the time to read-out.

The opening 3 entries, ahead of the listing:
no.	target	dsRNA	E2F firefly, rep 1	Renilla normaliser, rep 1
1	Mipp2 (Multiple inositol polyphosphate phosphatase 2)	DRSC18682	8189	704
2	Tcs3 (Threonyl-carbamoyl synthesis 3)	DRSC10461	1.84e5	8005
3	CG10863	DRSC08145	71063	3117

Main list, from the first entry:
no.	target	dsRNA	E2F firefly, rep 1	Renilla normaliser, rep 1
1	Mipp2 (Multiple inositol polyphosphate phosphatase 2)	DRSC18682	8189	704
2	Tcs3 (Threonyl-carbamoyl synthesis 3)	DRSC10461	1.84e5	8005
3	CG10863	DRSC08145	71063	3117
4	NaCP60E (Na channel protein 60E)	DRSC04307	86076	3393
5	slou (slouch)	DRSC17058	1.61e5	7363
6	CG17219	DRSC00486	1.42e5	5235
7	mino (minotaur)	DRSC14132	1923	836
8	OstDelta (Oligosaccharide transferase Delta subunit)	DRSC06980	63506	3754
9	CG15739	DRSC19705	46981	3687
10	Hinfp (Histone H4 transcription factor)	DRSC18484	1.36e5	6225
11	CG6310	DRSC10619	85772	4621
12	Act88F (Actin 88F)	DRSC14105	91594	5996
13	CG9240	DRSC20177	1.48e5	6184
14	CG30334	DRSC05345	1.20e5	5671
15	CG9701	DRSC11093	73696	3591
16	CG45263	DRSC12682	62218	3670
17	CG45263	DRSC14360	1.38e5	6169
18	CG45263	DRSC14361	1.35e5	6721
19	CG45263	DRSC14363	1.72e5	7118
20	CG14130	DRSC10134	64482	1655
21	CG6304	DRSC02948	84129	2974
22	Hip1 (Huntingtin interacting protein 1)	DRSC09812	75955	3704
23	CG1441	DRSC06448	2832	209
24	krimp (krimper)	DRSC06578	64690	3842
25	Dll (Distal-less)	DRSC04610	92509	3675
26	halo	DRSC00705	1.73e5	5844
27	Sara (Smad anchor for receptor activation)	DRSC04653	1.06e5	4513
28	MED6 (Mediator complex subunit 6)	DRSC16500	54842	3150
29	CG9903	DRSC20213	1.41e5	17702
30	Orp8 (Oxysterol-binding protein-related protein 8)	DRSC15110	1.55e5	7291
31	Orp8 (Oxysterol-binding protein-related protein 8)	DRSC15712	66057	3224
32	CG6937	DRSC16140	74782	5480
33	Npc2f (Niemann-Pick type C-2f)	DRSC15980	77646	3773
34	smg (smaug)	DRSC11397	71877	3742
35	jagn (jagunal)	DRSC12152	74504	4277
36	mRpL16 (mitochondrial ribosomal protein L16)	DRSC18550	2185	1000
37	CG7600	DRSC09681	69844	3950
38	CG14818	DRSC18548	94505	5143
39	CG17199	DRSC15192	1.38e5	6849
40	CG10909	DRSC14282	1.21e5	5508
41	capt (capulet)	DRSC00676	1.49e5	5380
42	capt (capulet)	DRSC00806	1.63e5	5865
43	HP5 (Heterochromatin protein 5)	DRSC19773	8397	804
44	CG14020	DRSC02350	1.51e5	4941
45	CG14644	DRSC12230	1.39e5	7068
46	CG31141	DRSC13646	74325	2010
47	CG13022	DRSC09902	1.70e5	7384
48	DIP-eta (Dpr-interacting protein eta)	DRSC02342	1.60e5	4832
49	CG15056	DRSC19630	2.39e5	7448
50	CG8526	DRSC16438	1.62e5	7129
51	CG30109	DRSC05675	1.75e5	7799
52	CG18787 + CG18789	DRSC02698	1.01e5	4014
53	karr	DRSC20681	1.36e5	6687
54	Crtc (CREB-regulated transcription coactivator)	DRSC10578	1.06e5	5193
55	Uba1 (Ubiquitin activating enzyme 1)	DRSC07567	2854	212
56	CG17109	DRSC15172	1.06e5	6150
57	CG3437	DRSC10366	1.12e5	6548
58	RpLP2 (Ribosomal protein LP2)	DRSC07539	80007	4594
59	CG17821	DRSC06696	1.49e5	5522
60	Dhc98D (Dynein heavy chain at 89D)	DRSC16645	1.19e5	6901
61	akirin	DRSC11000	52345	3834
62	CCDC151 (Coiled-coil domain containing protein 151)	DRSC10131	1.35e5	6967
63	Bem46	DRSC00275	1.67e5	6198
64	CG17996 + Tsen2	DRSC02650	1.02e5	4809
65	Acp26Ab (Accessory gland protein 26Ab)	DRSC01856	1.45e5	5371
66	inaC (inactivation no afterpotential C)	DRSC07632	73369	3397
67	CG30269	DRSC04158	94342	3856
68	CG30099	DRSC07039	1.52e5	5103
69	Obp58b (Odorant-binding protein 58b)	DRSC04161	95428	4316
70	bru3 (bruno 3)	DRSC09280	1.34e5	4097
71	bru3 (bruno 3)	DRSC09687	76935	3627
72	bru3 (bruno 3)	DRSC09887	1.33e5	7119
73	CG7309	DRSC03045	1.37e5	4828
74	l(2)37Cb (lethal (2) 37Cb)	DRSC02095	79374	3246
75	ana1 (anastral spindle 1)	DRSC16079	68374	4032
76	CG34462	DRSC10768	91866	3655
77	ClC-b (Chloride channel-b)	DRSC07220	1.05e5	4079
78	CG6026	DRSC15950	1.17e5	8090
79	Nedd8 (Nedd8 ubiquitin like modifier)	DRSC02092	96028	4873
80	dachs	DRSC02072	96560	3770
81	dachs	DRSC02191	1.58e5	5392
82	Spn42Da (Serpin 42Da)	DRSC05025	1.49e5	5103
83	CG2233	DRSC18217	7822	792
84	Or49b (Odorant receptor 49b)	DRSC07494	1.13e5	4407
